Several values for one entry are separate records, joined by “and”; a condition that tells them apart may be missing. Identical values can stand only once. Hit rate of the full screen: of about 320,000 compounds, about 22,000 (6.9%) were called active. Inconclusive results, whose numbers are uncertain, are shown with a selection of clear calls. Calls follow the shape of the dose curve; as a rule, active = well fitted inhibition curve with a large enough effect; inconclusive = small, poorly fitted or top-dose-only effect, or another doubt; inactive = no such curve, though single readings can be large or run the other way. Potencies of inconclusive entries are doubtful fits and often do not repeat. Some structures have more than one record in an assay (separate samples or runs), and their calls can disagree.
Experiment: Primary qHTS for delayed death inhibitors of the malarial parasite plastid, 96 hour incubation
Conditions: P. falciparum luciferase reporter growth; series mostly up to 28.7 µM; activity change, negative = inhibition: at the top concentration
How it was run: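 Two-generation exposure (96 h) targets delayed-death phenotype. Reporter parasites carrying integrated firefly luciferase, in red cells at 2% hematocrit and 0.05% parasitemia final, kept at 37 C, 5% CO2; luminescence loss indicates inhibition.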
% is scaled to controls: 0 for no effect and ±100 for the full control effect; potency is read from the fitted curve at half-maximal effect.

SMILES	Potency	activity change, negative = inhibition
C=C1CCC[C@]2(C)C[C@H]3OC(=O)C(CN4CCCCC4CO)[C@H]3CC12 (stereo partly specified)	inconclusive: 11.7 µM [inhibitor, single point]	
Cc1ccc2[nH]c(=O)c(Cc3ccccc3)c(O)c2c1		inactive: 107%
O=C(NN1CCOCC1)C12CC3CC(CC(C3)C1)C2		inactive: 3.54%
CC(=O)NC12CC3CC(C1)CC(C(=O)OCC(=O)Nc1ncc(Cl)c(C)c1Cl)(C3)C2	inconclusive: 2.33 µM [inhibitor, partial curve, poor fit]	
N#Cc1ccccc1CN1C(=O)NC2(CCCCCC2)C1=O		inactive: 18.9%
CN(C)S(=O)(=O)c1cccc(N=C2NN=C(c3ccccc3)CS2)c1	active: 2.33 µM	
COc1ccc(N(C)C(=S)Oc2ccc(C(=O)Nc3ccccc3)cc2)cc1	inconclusive: 18.5 µM [inhibitor, single point]	
O=C1C2=C(CCCC2)C(=O)N1c1cccc(OCCBr)c1	inconclusive: 13.1 µM [inhibitor, partial curve, poor fit]	
CC(C)(C)c1ccc(C(=O)C2CCCN(C(=O)CN3CCCC3=O)C2)cc1 (stereo unspecified)	inconclusive: 10.4 µM [inhibitor, single point]	
COc1ccc(S(=O)(=O)N2CCC3(CC2)CC(=O)c2ccccc2O3)cc1OC		inactive: -10.4%
CCOC(=O)N/N=C(C)/C=C/c1ccco1	inconclusive: 14.7 µM [inhibitor, partial curve, poor fit]	
CCCc1nnc(NC(=O)c2oc3ccccc3c2COCC)s1	inconclusive: 20.8 µM [inhibitor, partial curve, poor fit]	
CCOC(=O)c1ccc(N=C2SC(C(=O)NC)CC(=O)N2Cc2ccc(F)cc2)cc1 (stereo unspecified)	active: 1.65 µM	
COc1cc(C(=O)NC2CC(C)(C)CC(C)(C)C2)ccc1OC1CCN(C(C)=O)CC1	active: 9.28 µM	
O=C(Cn1c(=O)n(Cc2ccco2)c(=O)c2ccccc21)Nc1cccc(Cl)c1	inconclusive: 5.22 µM [inhibitor, partial curve, poor fit]	
CC1(c2nnc(-c3cccc(Cl)c3)o2)CC(c2ccccc2Br)=NO1 (stereo unspecified)	inconclusive: 0.037 µM [inhibitor, full curve]	
CCN(CC(=O)Nc1c(F)cccc1F)C(=O)/C=C/c1ccc(C)cc1		inactive: 47%
COc1cccc(NC(=O)Cc2c(O)c3ccccc3[nH]c2=O)c1	inconclusive: 18.5 µM [inhibitor, single point]	
CCOc1cc(S(=O)(=O)N2CCN(C(=O)c3ccco3)CC2)ccc1F		inactive: -4.1%
CCOc1ccc(Nc2nc(NCC(=O)O)nc(N)c2[N+](=O)[O-])cc1		inactive: 2%
CCN1CCc2nc(NC(=O)Cc3ccc4c(c3)OCCO4)sc2C1		inactive: -12.6%
Cc1ccc(-c2nc(C(=O)NCC3CCCO3)cc3c2[nH]c2ccccc23)cc1 (stereo unspecified)	inconclusive: 9.28 µM [inhibitor, partial curve]	

SMILES	Potency	activity change, negative = inhibition
O=C(/C=C/c1ccc([N+](=O)[O-])cc1)N1CCN(S(=O)(=O)c2ccccc2)CC1	inconclusive: 5.22 µM [inhibitor, partial curve]	
CC(C)Cn1c(N)c(C(=O)CCl)c(=O)n(C)c1=O	inconclusive: 11.7 µM [inhibitor, single point]	
COc1ccc(C(=O)CN(Cc2ccccc2)C2=NCCS2)cc1		inactive: -17.2%
Cc1c(C(=O)N/N=C/c2ccoc2)cccc1[N+](=O)[O-]	inconclusive: 11.7 µM [inhibitor, single point]	
O=C(CCCCCNC(=O)N1CCn2c1nc1ccccc12)NCc1ccc(Cl)cc1	inconclusive: 11.7 µM [inhibitor, single point]	
Cc1cc(C(=O)COC(=O)C2CCN(C(=O)c3ccc(Cl)cc3)CC2)c(C)n1CC1CCCO1 (stereo unspecified)		inactive: -18%
O=C(COc1ncnc2ccccc12)Nc1ccc(Cl)c(S(=O)(=O)N2CCOCC2)c1	inconclusive: 10.4 µM [inhibitor, single point]	
O=C(Cn1cnc2c(cnn2-c2ccc(F)cc2)c1=O)N1CCN(c2ccccc2F)CC1	inconclusive: 18.5 µM [inhibitor, single point]	
CCc1ccc(-c2cc3c(=O)n(CC(=O)NCc4ccccc4F)ncn3n2)cc1	inconclusive: 14.7 µM [inhibitor, partial curve, poor fit]	
COc1cc(-c2cc(C(=O)Nc3cc(S(=O)(=O)N4CCOCC4)ccc3C)c3ccccc3n2)cc(OC)c1OC	active: 1.04 µM	
C=CCN=c1scc(-c2ccccc2)n1/N=C/c1ccccn1	inconclusive: 18.5 µM [inhibitor, single point]	
CCCCNC(=O)/C(C#N)=C/c1ccc(-c2ccc(S(=O)(=O)N3CCOCC3)cc2)o1	inconclusive: 5.86 µM [inhibitor, partial curve, poor fit]	
Cn1c(-[n+]2c(-c3ccccc3)cc(-c3ccccc3)cc2-c2ccccc2)nc2c([N+](=O)[O-])cccc21	inconclusive: 11.7 µM [inhibitor, single point]	
CCN(CC)C(=O)c1cn(CCC#N)nc1-c1ccc2ccccc2c1	inconclusive: 11.7 µM [inhibitor, single point]	
Cn1cc(CN2CCCC(C(=O)c3ccc(-c4ccccc4)c(F)c3)C2)cn1 (stereo unspecified)	inconclusive: 2.94 µM [inhibitor, single point]	
Cc1ccc(NS(=O)(=O)c2cc(C(=O)N3CCN(CCO)CC3)ccc2C)cc1	inconclusive: 18.5 µM [inhibitor, single point]	
Cc1cc2cc(CCNC(=O)c3ccc(S(=O)(=O)N4CCOCC4)cc3)c(=O)[nH]c2cc1C	active: 8.28 µM	
NS(=O)(=O)c1ccc(-c2ccc(C=C3C(=O)NC(=S)NC3=O)o2)cc1	inconclusive: 8.28 µM [inhibitor, single point]	
CC(C)Cn1c(=O)c(C(=O)NCc2ccc3c(c2)OCO3)c(O)c2ccccc21	inconclusive: 5.22 µM [inhibitor, partial curve]	
NC(=O)CSc1nc2scc(-c3ccc(Cl)cc3)c2c(=O)n1Cc1ccccc1	active: 8.28 µM	
CCCCn1ccnc1C(=O)c1ccc(S(=O)(=O)N(CCOC)CCOC)cc1	inconclusive: 13.1 µM [inhibitor, single point]	
CCN(CC)S(=O)(=O)c1ccc(NC(=S)NC(=O)CC(C)C)cc1	inconclusive: 14.7 µM [inhibitor, partial curve]	

SMILES	Potency	activity change, negative = inhibition
CCc1ccc(-c2cn3c(n2)SCC3)cc1		inactive: 36.7%
CCCC(C)C(=O)N(Cc1ccccc1)c1ccccn1 (stereo unspecified)	inconclusive: 0.0033 µM [inhibitor, full curve, poor fit]	
CCN(CC(=O)NC1CCS(=O)(=O)C1)S(=O)(=O)c1ccc(Cl)cc1C(F)(F)F (stereo unspecified)		inactive: -15.2%
CCn1c(=NC(=O)CS(=O)(=O)c2ccccc2)sc2cccc(OC)c21	inconclusive: 9.28 µM [inhibitor, partial curve]	
CC(=O)NC(c1ccccc1)c1nc2ccccc2[nH]1 (stereo unspecified)		inactive: 13.9%
CCCCC(O)(CCCC)C(=O)NN(C(=O)CCl)c1ccccc1	inconclusive: 10.4 µM [inhibitor, single point]	
CC(C)Oc1ccc(C(CC(=O)O)NC(=O)C(Sc2ccccc2)c2ccccc2)cc1 (stereo unspecified)	inconclusive: 5.22 µM [inhibitor, partial curve, poor fit]	
N/C(=N\O)c1ccc([N+](=O)[O-])s1	inconclusive: 5.22 µM [inhibitor, partial curve, poor fit]	
COc1ccc(CN(C)C(=O)Cc2ccc(S(=O)(=O)N3CCOCC3)s2)cc1OC		inactive: -25.5%
Cc1cc(OC(C)C)nc(NCc2ccccc2)n1	inconclusive: 8.28 µM [inhibitor, partial curve]	
CCc1ccc(CN(C)C(=O)c2ccc3c(=O)n4c(nc3c2)CCC4)cc1	inconclusive: 10.4 µM [inhibitor, partial curve, poor fit]	
CCCC/C(C)=N/NC(=O)c1cn(-c2ccccc2)nc1-c1ccccc1	inconclusive: 18.5 µM [inhibitor, single point]	
CC(=O)N1CCc2cc(S(=O)(=O)CCC(=O)Nc3ccc(Cl)cc3F)ccc21	inconclusive: 18.5 µM [inhibitor, single point]	
O=C(NCC1CC1)c1ccc2c(c1)S(=O)(=O)c1cc(Cl)ccc1C2=O	inconclusive: 0.465 µM [inhibitor, full curve, poor fit]	
CCN(CC1COc2ccccc2O1)C(=S)NC1CC2CCC1C2 (stereo unspecified)	inconclusive: 10.4 µM [inhibitor, partial curve]	
CCCCCOC(=O)C1=C(C)Nc2nnnn2C1c1ccc(OC)c(OC)c1OC (stereo unspecified)	inconclusive: 18.5 µM [inhibitor, single point]	
COc1ccc(-c2csc(Nc3ccc(C)cn3)n2)cc1OC		inactive: 159%
O=C(CCC(=O)N1CCc2ccccc2C1)NCCc1ccc(Cl)cc1	inconclusive: 18.5 µM [inhibitor, single point]	
CCCCn1c(N)c(N(CCC(C)C)C(=O)C2CC(=O)N(Cc3ccc(C)cc3)C2)c(=O)[nH]c1=O (stereo unspecified)	inconclusive: 13.1 µM [inhibitor, single point]	
Nc1nc(Nc2ccccc2F)nc(NCc2ccco2)c1[N+](=O)[O-]	inconclusive: 10.4 µM [inhibitor, single point]	
Cc1ccc(S(=O)(=O)N2CCOCC2)cc1C(=O)Nc1ccc(S(=O)(=O)Nc2nccs2)cc1	inconclusive: 5.86 µM [inhibitor, partial curve, poor fit]	

— PubChem BioAssay AID504834 (National Center for Advancing Translational Sciences (NCATS), 2011)
